Measurements taken from patent US12492422B2, “Ex vivo protease activity detection for disease detection/diagnostic, staging, monitoring and treatment” (Sunbird Bio, Inc., priority 2020, dated 2025).
Some results were stated once for a whole list of compounds, not compound by compound. At least one structure is not confirmed: it was looked up by name or label, or the drawing left a doubt.

Tested on: proteases cleaving Probe #102 in plasma (cathepsin L)
Test: Inhibitor profiling of Probe #102 cleavage in NASH and healthy plasma
Type: biochemical, mice
Experimental: For this experiment, all plasma samples were prepared individually and diluted 1/10e in PBS with inhibitor added directly to the samples. Inhibitor was prepared at 15× concentration to final. Substrates were diluted in DI water at 18 uM, such that the final concentration on the plate would be 6 uM. All samples were prepared such that their last dilution on the plate would not affect the desired final concentration. 10 ul of each individual sample was pipetted into their corresponding wells, and the plate was then spun down in the centrifuge at 1500 RPM for 30 seconds to coat the bottom of each well with the sample. 5 ul of the 18 uM substrate solution was pipetted into each well being used on a 384 well plate, and then the plate was spun down in the centrifuge at 1500 rpm for 30 seconds. The plate was placed immediately in the plate reader at 37° C. for a 30-minute-long fluorescence kinetic read at 485/535 extended gain.
To assess the proteolytic cleavage pattern of Probe #102, samples were tested using a pool of broad inhibitors for serine, cysteine, threonine, MMP and aspartic protease family members (broad inhibitor) to assess general protease activity, AEBSF for serine proteases, E64 for cysteine proteases, CTSi for broad cathepsin inhibition of cathepsins L, S, K and B, or specific inhibitors for cathepsin K (L00625), for cathepsin L (SID) or cathepsin B (CA074).

CC(C)C[C@H](NC(=O)[C@H]1O[C@@H]1C(=O)O)C(=O)NCCCCN=C(N)N [Probe E64]
decrease in the RFU signal contrast between NASH and healthy samples: greater than 6 fold
